Data as given in PubChem BioAssay AID504786 (Drosophila RNAi Screening Center, 2011)
Assay: 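Knock-downs reducing HIF reporter induction by the iron chelator DFO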 (primary screen). System: Drosophila S2 cells with a stable HIF luciferase reporter. Reagents: long dsRNA against Drosophila genes, about 0.2 µg dsRNA per well of a 384-well plate. Timing: three days of knock-down, then 20 h of DFO before reading. Treatment: desferrioxamine (DFO) at 100 µM, an iron chelator that mimics hypoxia, for 20 h. Measurement: 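HIF reporter luminescence in cells given 100 µM DFO for 20 h, using the mouse ldh-a hypoxia-response element, scored as per-plate z-scores; higher means greater loss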. Reading the numbers: z-score: higher = stronger loss of HIF reporter signal.
In all, the deposit lists about 21,000 reagents; shown is an unselected part of those that have a named target and a result. 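Primary screen; positive scores mean lost reporter signal, so the sign may be inverted from the usual convention.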 Reagent sequences are not shown.

The first 2 entries as a preview:
CG15864 [DRSC15122] | z-score, replicate 1 = 0; z-score, replicate 2 = -0.5
sut3 (sugar transporter 3) [DRSC07702] | z-score, replicate 1 = 0; z-score, replicate 2 = 0

The listing, from the start:
CG15864 [DRSC15122] | z-score, replicate 1 = 0; z-score, replicate 2 = -0.5
sut3 (sugar transporter 3) [DRSC07702] | z-score, replicate 1 = 0; z-score, replicate 2 = 0
Rcc1 (Regulator of chromosome condensation 1) [DRSC09684] | z-score, replicate 1 = -0.3; z-score, replicate 2 = -0.2
CG10474 [DRSC05993] | z-score, replicate 1 = -0.2; z-score, replicate 2 = -0.4
Nup154 (Nucleoporin 154kD) [DRSC03384] | z-score, replicate 1 = 0.5; z-score, replicate 2 = 0.3
gammaSnap2 (gamma Soluble NSF attachment protein 2) [DRSC15992] | z-score, replicate 1 = -0.3; z-score, replicate 2 = -0.5
CG9673 [DRSC20202] | z-score, replicate 1 = -0.3; z-score, replicate 2 = -0.3
Evi5 (Ecotropic viral integration site 5) [DRSC19421] | z-score, replicate 1 = -0.3; z-score, replicate 2 = -0.1
CG8564 [DRSC10997] | z-score, replicate 1 = -0.3; z-score, replicate 2 = -0.3
CG4328 [DRSC10410] | z-score, replicate 1 = 3.8; z-score, replicate 2 = 4.6
CG30291 [DRSC03842] | z-score, replicate 1 = -0.8; z-score, replicate 2 = -0.4
CG11563 [DRSC14327] | z-score, replicate 1 = -0.3; z-score, replicate 2 = -0.2
CG18659 [DRSC06784] | z-score, replicate 1 = -0.4; z-score, replicate 2 = -0.2
qin [DRSC14782] | z-score, replicate 1 = -0.1; z-score, replicate 2 = 0.1
Pi3K92E (Phosphatidylinositol 3-kinase 92E) [DRSC16788] | z-score, replicate 1 = -0.1; z-score, replicate 2 = -0.4
Fum1 (Fumarase 1) [DRSC18344] | z-score, replicate 1 = -0.2; z-score, replicate 2 = -0.5
